Reference: patent US7842709B2, “Method for treating inflammatory diseases of the digestive tract” (Ore Pharmaceuticals Inc., priority 2006, dated 2010)
For at least one compound, name, drawing or mass did not settle the structure.

Assays:
DSS-induced colitis [1] = experiment: DSS-induced histological effects in colon of Balb/c mice, Example 6; type: in vivo; conditions: for disease activity (based on fecal samples): day 7-14
[2] = test system: NF-κB dependent transcription in recombinant HeLa reporter cells; experiment: TNFα-induced activation of NF-κB dependent transcription, luciferase reporter in HeLa cells; type: cell-based; conditions: all tested concentrations (0.008-5.0 μM)
Excerpt: To test the ACE2 inhibitor GL1001 for anti-inflammatory activity relevant to IBD, effects of the compound on activation of NF-κB dependent transcription by TNFα were examined in recombinant reporter cells containing a construct with a luciferase reporter gene under control of NF-κB dependent regulatory sequences, thereby allowing detection of NF-κB dependent transcription by measuring reporter enzyme using a conventional luciferase activity assay based on detection of generated light.
In particular, HeLa cells (American Type Culture Collection) were grown in Dulbecco's modified Eagles medium (DMEM) supplemented with 10% fetal calf serum and transiently transfected with an NF-κB-luc construct (Stratagene, Inc.), as follows (with all incubation steps at 37 C unless otherwise indicated). Cells were seeded and grown to about 70% confluency in a 10 cm cell culture dish. Plasmid DNA (10 μg) was added to 1 ml serum free DMEM media in a tube. Fugene 6 transfection reagent (30 μl) (Roche) was then pipetted slowly into the tube and the contents were gently mixed by inversion. The mixture was incubated at room temperature for 15 minutes and then added dropwise to cells in one 10 cm dish. […] Bioluminescence was then measured using a Veritas luminometer (Turner BioSystems). […]

[3] = test system: LPS induced NF-κB dependent transcription; experiment: In vivo LPS induced NF-κB dependent transcription, abdominal imaging of NF-κB:Luc mice
[4] = test system: dextran sulfate sodium (DSS) induced colitis; experiment: DSS induced colitis (IBD) in NF-κB:Luc mice, Example 5; type: in vivo; conditions: 100 mg/kg subcutaneously per day
[5] = test system: basal NF-κB dependent transcription; experiment: In vivo basal NF-κB dependent transcription, abdominal imaging of NF-κB:Luc mice; conditions: both lower doses, subcutaneous, 4 hours
Excerpt: GL1001 was further tested for in vivo anti-inflammatory activity by examining its effects on basal levels of NF-κB dependent transcription in mice engineered in the germline with a construct containing an NF-κB enhancer linked to a luciferase gene (i.e., NF-κB:Luc mice), such that this NF-κB reporter construct is present in all cells of the mice.
More particularly, transgenic NF-κB:Luc mice were generated using three NF-κB response elements from the Igκ light chain promoter fused to a firefly luciferase gene as described by Carlsen et al. (2002) J. Immunol. 168:1441-1446. Pronuclear microinjection of purified construct DNA was used to generate transgenic founders in the C57BL/6 XCBA/J background. Founders were subsequently back crossed to the C57BL/6 albino background. […] Signal data were also quantitated and archived using the Living Image® software. Photons of light were quantitated using an oval region of interest (ROI) of varying sizes depending on the procedure, as described further below.
To test for in vivo effects of GL1001 on basal levels of NF-κB dependent transcription, male NF-κB:Luc mice were subjected to quantitative in vivo imaging of the abdominal area (using a fixed ROI of 2.76×3.7 cm) as described above, immediately before, and at 2, […]

DSS-induced colitis [6] = experiment: DSS-induced colitis in Balb/c mice, Example 7; type: in vivo
Description: A study was designed with six groups of Balb/c mice: naïve control, DSS followed by vehicle, DSS followed by GL1001 30 mg/kg/day, DSS followed by GL1001 100 mg/kg/day, DSS followed by GL1001 300 mg/kg/day, and DSS followed by sulfasalazine 150 mg/kg/day. Administration of DSS was via drinking water, from day 1 to day 6 of the study. […] Administration of vehicle, GL1001 and sulfasalazine was subcutaneous, twice daily, from day 6 until termination of the study (day 16). Body weight of each animal was measured at days 1, 3 and 5 (pre-initiation of GL1001 or sulfasalazine treatment) and at days 7, 9, 11 and 13 (post-initiation of GL1001 or sulfasalazine treatment). On these same days, disease activity measurements were recorded, including: • (a) rectal prolapse (0=no prolapse, 1=partial prolapse, 2=moderate prolapse, 3=full prolapse); • (b) stool consistency (0=solid pellet, 1=semi-solid, 2=soft stool, 3=diarrhea); and • (c) fecal occult blood (0=no blood present, 1=occult blood, 2=gross blood). At termination of the study, colon length was determined and histological analysis was conducted as in Example 6.

[7] = test system: DSS-induced NF-κB signaling; experiment: Subsequent 2.5% DSS study in NF-κB:Luc mice, oral gavage; type: in vivo; conditions: 300 mg/kg/day, twice daily by oral gavage
[8] = test system: LPS induced NF-κB dependent transcription; experiment: LPS induced NF-κB dependent transcription in extracted organs of NF-κB:Luc mice (luciferase lysate assay); type: in vivo; conditions: 0.5 mg/kg LPS and GL1001 at 30 mg/1 g vs LPS alone
Excerpt: For luciferase assays, organs were extracted and snap frozen in liquid nitrogen. All tissue samples were placed in lysis buffer with inhibitors (Passive Lysis Buffer (Promega) and Complete Mini Protease Inhibitor Cocktail (Roche, Indianapolis, Ind.)), and were homogenized using a tissue homogenizer (Handishear, Hand-held homogenizer, VirTis, Gardiner, N.Y.). Tissue homogenates were centrifuged and clarified lysates were used for luminometer assays and western blots. For the luminometer assays, Luciferase Assay Substrate (Luciferase Assay System, Promega) was prepared as indicated by the manufacturer and placed in disposable cuvettes. […] Background luminescence readings were obtained and the background readings were subtracted from the luminescent data. Protein concentrations were determined using the BCA Protein Assay Kit (Pierce, Rockford, Ill.) following the manufacturer's protocols and analyzed using a VERSAmax tunable microplate reader and associated Softmax Pro version 3.1.2 software (Molecular Devices, Sunnyvale Calif.). The luminescence for each of the protein lysates was calculated as arbitrary units of light per microgram of protein. […]
GL1001 was further tested for in vivo anti-inflammatory activity by examining its effects on bacterial LPS induced NF-κB dependent transcription, in NF-κB:Luc mice. […] Luciferase signal was quantitated from several regions of interest. […]

[9] = dexamethasone 3 mg/kg/day subcutaneous
[10] = 100 mg/kg once-daily subcutaneous (FIG. 14)
[11] = 100 mg/kg/day subcutaneous once daily (FIG. 13)

In the case of `C[C@@H]1C[C@H]2[C@@H]3CCC4=CC(=O)C=C[C@]4(C)[C@@]3(F)[C@@H](O)C[C@]2(C)[C@@]1(O)C(=O)CO` [dexamethasone, reference compound], the “histological effect in colon” value (DSS-induced colitis [1]; [9]) is reported as “No significant histological effect” and the “disease activity (based on fecal samples)” value (DSS-induced colitis [1]; [9]) is reported as “No significant improvement”.
For `CC(C)C[C@H](N[C@@H](Cc1cncn1Cc1cc(Cl)cc(Cl)c1)C(=O)O)C(=O)O` [GL1001, (S,S)-2-[1-carboxy-2-[3-(3,5-dichlorobenzyl)-3H-imidazol-4-yl]-ethylamino]-4-methylpentanoic acid], the “TNFα induced activation of NF-κB dependent transcription” value [2] was “significantly inhibited”, the “LPS induced NF-κB signaling response, abdominal region” value ([3]; 30, 100, 300 mg/kg subcutaneous 1 hour before LPS i.v. (FIG. 4)) was “significantly reduced” and the “LPS induced NF-κB signaling, abdominal region” value ([3]; repeat experiment, dose range 3-100 mg/kg, effect at 30 and 100 mg/kg (FIG. 5)) was “significantly reduced”. The “inflammatory bowel disease activity index” value ([4]; between days 3 and 8 (FIG. 9)) was “slight delay”, the “reduction in body weight” value ([4]; between days 4 and 9 vs DSS only (FIG. 10)) was “significantly delayed” and the “DSS induced organ weight increases (organ weight/body weight ratio) in cecum and large intestine (colon)” value ([4]; end of study (FIG. 11)) was “completely prevented”. The “NF-κB-driven luciferase expression, abdominal imaging, DSS only vs DSS+GL1001” value ([4]; from study day 6 (FIG. 7)) was “non-statistically significant divergence”, the “inhibition of basal in vivo levels of NF-κB dependent transcription in abdominal ROI” value [5] was “lesser but still significant extents” and the “reduction in colon length” value (DSS-induced colitis [6]; GL1001 300 mg/kg b.i.d. subcutaneous (FIG. 19)) was “inhibits reduction”. The “distal colon inflammation score” value (DSS-induced colitis [6]; GL1001 300 mg/kg b.i.d. subcutaneous (FIG. 20)) was “reduces”, the “distal colon crypt score” value (DSS-induced colitis [6]; GL1001 300 mg/kg b.i.d. subcutaneous (FIG. 21)) was “reduces” and the “distal colon erosion score” value (DSS-induced colitis [6]; GL1001 300 mg/kg b.i.d. subcutaneous (FIG. 22)) was “reduces”. The “distal colon total histopathology score” value (DSS-induced colitis [6]; GL1001 300 mg/kg b.i.d. subcutaneous (FIG. 23)) was “reduces”, the stool consistency (DSS-induced colitis [6]; GL1001 300 mg/kg b.i.d. subcutaneous, day 7 (FIG. 17)) was “reduces” and the fecal occult blood (DSS-induced colitis [6]; GL1001 300 mg/kg b.i.d. subcutaneous, day 7 (FIG. 18)) was “reduces”. The percentage weight loss (DSS-induced colitis [6]; GL1001 300 mg/kg b.i.d. subcutaneous, day 9 (FIG. 15)) was “reduces”, the rectal prolapse (DSS-induced colitis [6]; GL1001 300 mg/kg b.i.d. subcutaneous, day 9 (FIG. 16)) was “reduces” and the “improvements in body weight, disease activity, colon length and histopathology relative to sulfasalazine treatment” value (DSS-induced colitis [6]; at least at the 300 mg/kg/day dose) was “comparable to, in some cases apparently greater”. The “erosion in distal colon micrograph” value (DSS-induced colitis [1]; [10]) was “no erosion is seen”, the “inflammation and gland loss in distal colon micrograph” value (DSS-induced colitis [1]; [10]) was “mild” and the “erosion score (0-5), distal colon” value (DSS-induced colitis [1]; [11]) was “significantly reduced”. For the same molecule, the “glandular score (0-5), distal colon” value (DSS-induced colitis [1]; [11]) was “significantly reduced”, the “inflammation score (0-5), distal colon” value (DSS-induced colitis [1]; [11]) was “significantly reduced” and the “total histopathological score, distal colon” value (DSS-induced colitis [1]; [11]) was “significantly reduced”. The “histological effect in colon” value (DSS-induced colitis [1]; GL1001 10 mg/kg/day subcutaneous) was “No significant histological effect”, the “disease activity (based on fecal samples)” value (DSS-induced colitis [1]; GL1001 10 or 100 mg/kg/day subcutaneous) was “No significant improvement” and the “DSS-induced NF-κB signaling (luciferase expression)” value [7] was “did not lower”. For the same molecule, the “LPS induced NF-κB signaling in pancreas and uterus or any other organ analyzed” value [8] was “no statistically significant decrease”.
